This experiment in a line: IkB Signaling. The note with it: ABC-DLBCL IkBa-CBG/CBR dual luciferase ratio (green luciferase fused to IkBa over red control in OCI-Ly3 lymphoma cells), 4 h. Summed up: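 Luminescence ratio of IκBα-fused green versus native red beetle luciferase in OCI-Ly3 cells, 4 h post-doxycycline with compound; red signal alone, scaled from basal (0%) to zero light (-100%), flagged nonspecific or cytotoxic effects.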
Setting [1] is: measured here: control luc red channel unless noted.
Where [2] appears, read: measured here: IkB-luc green channel.
The mark [3] stands for this setting: measured here: control luc red channel.

Structures are written as SMILES. The list shows a part of the results. These are further read-outs of the screen, such as a control signal, another cell line or another target. No call is given for them. Compounds called inactive in the main read-out are mostly missing here. Words in brackets tell the shape of the fitted curve; partial curves, single points and poor fits give uncertain potencies.

In the case of `COc1ccc2nc(NC(=O)c3nc(S(=O)(=O)Cc4ccc(C)cc4)ncc3Cl)sc2c1`, the AC50 (usually the concentration giving half of the maximal activity seen) under setting [1] was 12.6 µM [falling, partial curve].

For the molecule `CCOc1ccccc1NC(=O)CN(c1cc(C)cc(C)c1)S(=O)(=O)c1c(C)nn(C)c1C`, the AC50 under setting [1] was 15.8 µM [falling, partial curve].

Turning to `Cc1ccc(NC(=O)c2cc(NC(=O)c3ccco3)ccc2N2CCOCC2)cc1`, the AC50 under setting [1] was 0.1 µM [falling, full curve]. The same measure, in the same setting: for `CCOc1ccc2nc(Cl)c(C3CC(c4ccccc4)=NN3C(=O)CCC(=O)O)cc2c1` (centres undefined) the value was 10 µM [falling, partial curve, poor fit]. Same read-out and setting: for `Cc1ccc(Nc2nc(CSc3nnnn3-c3ccccc3)cs2)cc1` the value was 6.31 µM [falling, partial curve]; for `Cc1ccc(-c2nnc(Nc3ccc(O)cc3)c3ccccc23)cc1S(=O)(=O)NC(C)(C)CO`, 15.8 µM [falling, partial curve]; for `CCOc1ccc(S(=O)(=O)N(CC(=O)Nc2ccc(OC)c(Cl)c2)c2ccccc2)cc1`, 0.158 µM [falling, full curve, poor fit].

On to `COCCNC(=O)c1ccccc1NC(=O)C1COc2ccccc2O1` (centres undefined), for which the AC50 under setting [1] was 2 µM [rising, partial curve]. The same measure, in the same setting: for `CCOc1cc(C(=O)Nc2ccc3nc(N4CCN(C)CC4)cc(C)c3c2)cc(OCC)c1OCC` the value was 3.98 µM [falling, full curve]; for `CCOc1ccccc1NC(=O)c1ccccc1-c1nc(-c2ccccc2OC)no1`, 1.58 µM [falling, full curve]; for `COc1ccc(S(=O)(=O)N(CC(=O)Nc2ccc(C)cc2)c2ccc(C)cc2)cc1OC`, 1.58 µM [rising, partial curve].

`Cc1oc2ncnc(N3CCCCC3)c2c1C(=O)N1CCN(c2ccc(Cl)cc2)CC1`: the half-maximal activity concentration (AC50) under setting [1] was 0.01 µM [falling, full curve, poor fit]. Same read-out and setting: for `CCOC(=O)c1ccccc1NC(=O)CSc1cn(CC(=O)N2CCCCCC2)c2ccccc12` the value was 12.6 µM [falling, partial curve]; for `COc1ccc(NC(=O)c2ccco2)cc1NC(=O)c1cc(Br)ccc1Cl`, 3.98 µM [rising, single point].

For `COc1ccc(-c2nc3c4ccccc4n(CC(=O)N4CCN(c5ccccc5F)CC4)c(=O)n3n2)cc1`, the half-maximal activity concentration (AC50) under setting [1] is 3.98 µM [rising, partial curve]. On the same count and under the same terms, next, `O=C(NC1C=CS(=O)(=O)C1)c1sc2ccccc2c1Cl` (centres undefined): 12.6 µM [falling, partial curve].

With `CN(C)c1ccc(C2=NOC(CN3C(=O)c4ccccc4S3(=O)=O)C2)cc1` (centres undefined), under setting [1], the concentration at half-maximal activity (AC50) was 6.31 µM [falling, partial curve]. Same read-out and setting: for `CCc1ccc(NC(=O)CCCc2nnc3n(C(C)CC)c(=O)c4sccc4n23)cc1` (centres undefined) the value was 31.6 µM [falling, single point]. Still for that read-out and setting: for `Cc1ccc(Cl)cc1N1CCN(C(=O)COc2cc(=O)n(C)c3ccccc23)CC1` the value was 31.6 µM [falling, partial curve]. Take `CC(=O)N1CCc2c(sc3c2c(=O)n(Cc2ccccc2)c(=O)n3Cc2ccccc2Cl)C1`: the half-maximal activity concentration (AC50) under setting [1] is 39.8 µM [falling, single point]. For the molecule `COc1cc(-c2nc(-c3ccccc3)c(-c3ccc(Br)cc3)[nH]2)cc(OC)c1O`, under setting [1], the concentration at half-maximal activity (AC50) is 12.6 µM [falling, partial curve]. Still for that read-out and setting: for `CN(Cc1ccco1)c1ncnc2ccc(-c3ccoc3)cc12` the value was 5.01 µM [falling, partial curve]; for `COc1ccc(NC(=O)C2CCN(c3ccc(Sc4ccc(C)cc4)nn3)CC2)cc1`, 0.00631 µM [falling, full curve, poor fit]; for `CCCCCn1c(CN(C)Cc2ccccc2)nc2c1c(=O)n(C)c(=O)n2C`, 31.6 µM [falling, partial curve]. In the case of `CC1CN(C(=O)N2CCC(C(=O)NCc3cccs3)CC2)c2ccccc2O1` (centres undefined), under setting [1], the AC50 was 0.0251 µM [falling, full curve]. On the same count and under the same terms, next, `COc1ccc(Nc2oc(/C=C/c3cc(OC)c(OC)c(OC)c3)nc2C#N)cc1`: 7.94 µM [falling, partial curve]; `COc1cccc(CNC(=O)Cn2c(=O)nc(-c3ccccc3F)c3cc(Cl)ccc32)c1`: 15.8 µM [falling, partial curve].

On to `Cc1sc2ncn(CC(=O)N3CCN(c4cccc(Cl)c4)CC3)c(=O)c2c1S(=O)(=O)N1CCC(C)CC1`, for which the concentration at half-maximal activity (AC50) under setting [1] was 10 µM [falling, partial curve]. Turning to `COC(=O)c1ccc(NC(=O)CN(C)S(=O)(=O)c2ccc3c(c2)CCCC(=O)N3)cc1`, the AC50 under setting [1] was 39.8 µM [falling, single point]. The same measure, in the same setting: for `COc1cc(C)ccc1OCCSc1nc2ccc(NC(=O)c3ccccc3F)cc2s1` the value was 5.01 µM [falling, partial curve]; for `COC(=O)c1cc(NC(=O)Cn2nc(-c3ccccc3)c3c(c2=O)CCCC3)cc(C(=O)OC)c1`, 15.8 µM [falling, partial curve]; for `O=C(Nc1nsc(-c2ccccc2)n1)c1cccs1`, 1.58 µM [falling, full curve]. On the same count and under the same terms, for `COc1ccc2cc3cc(C(=O)NCCN4CCc5ccccc5C4)oc3nc2c1` the value was 10 µM [falling, partial curve].

Regarding `CCc1ccc(-c2cc(C)no2)cc1S(=O)(=O)NCc1ccc(OC)cc1`, the half-maximal activity concentration (AC50) under setting [1] was 6.31 µM [rising, full curve]. On to `Cc1ccc(-n2nc3c([n+]2[O-])CCc2c-3no[n+]2[O-])cc1`, for which the AC50 under setting [1] is 31.6 µM [falling, single point].

Take `CCOC(=O)c1cnc(Nc2nc3ccccc3o2)nc1CN1CCN(c2ccccc2)CC1`: the concentration at half-maximal activity (AC50) under setting [1] is 3.98 µM [falling, full curve].

On to `Cc1ccc(NS(=O)(=O)c2ccc3[nH]c4c(c3c2)CCCCCC4)cc1C`, for which the AC50 under setting [1] is 25.1 µM [falling, single point]. `CCOc1ccc(S(=O)(=O)Nc2ccc3c(c2)CCCN3S(=O)(=O)c2ccc(C)cc2)cc1`: the half-maximal activity concentration (AC50) under setting [1] was 15.8 µM [falling, partial curve]. As to `Cc1cccc(Nc2nnc(-c3ccc(C)c(S(=O)(=O)N4CCOCC4)c3)c3ccccc23)c1`, under setting [1], the AC50 was 25.1 µM [falling, partial curve, poor fit].

Take `CCCCN(C(=O)CCn1c(=O)oc2ccccc21)c1ccccc1`: the AC50 under setting [1] was 25.1 µM [falling, single point]. On the same count and under the same terms, for `CCOc1ccc(-c2cc(CCCC(=O)NCCc3ccc(SC)cc3)no2)cc1` the value was 0.501 µM [falling, full curve]; for `Cc1ccc(-c2noc(CCC(=O)Nc3cccc(C#N)c3)n2)cc1`, 15.8 µM [falling, partial curve].

Take `COc1cc(NC(=O)c2noc3c2CC(C(C)(C)C)CC3)cc(OC)c1OC` (centres undefined): under setting [1], the half-maximal activity concentration (AC50) is 31.6 µM [falling, single point]. As for `CCN(CC)C(=O)c1sc2c(c1C)c(=O)n(Cc1ccccc1)c(=O)n2Cc1c(C)cc(C)cc1C`, under setting [1], the concentration at half-maximal activity (AC50) is 10 µM [falling, partial curve]. For `Cc1cc2c(cc(C(=O)OC(C(=O)NCc3ccco3)C(C)C)n2C)o1` (centres undefined), the AC50 under setting [1] was 25.1 µM [falling, partial curve]. On the same count and under the same terms, for `CCOC(=O)c1ccc(NC(=O)c2c(NCc3ccc(OC)c(OC)c3OC)sc3c2CCC(C)C3)cc1` (centres undefined) the value was 15.8 µM [falling, partial curve]; for `Cc1ccc(NC(=O)CN2C(=O)c3ccccc3Sc3ccc(C(=O)N4CCOCC4)cc32)c(Cl)c1`, 20 µM [falling, single point]; for `c1nc2sc3c(c2c2nnnn12)CCC3`, 15.8 µM [falling, partial curve]. Take `Cc1conc1NC(c1cccs1)c1ccc2cccnc2c1O` (centres undefined): the concentration at half-maximal activity (AC50) was 3.98 µM [rising, partial curve] under setting [2] and 12.6 µM [falling, partial curve] under setting [3]. For `C=CC(=O)OCCCCCCOC(=O)C=C`, the half-maximal activity concentration (AC50) by setting is: under setting [2], 12.6 µM [rising, partial curve]; under setting [3], 12.6 µM [falling, full curve].

On to `CN1C(=O)C(CC(=O)Nc2ccc3c(c2)Cc2ccccc2-3)N(C)C1=O` (centres undefined), for which the half-maximal activity concentration (AC50) under setting [1] was 0.398 µM [rising, partial curve, poor fit]. In the case of `COc1ccc(OC)c(NC(=O)Nc2cccc(Cn3cccn3)c2)c1`, the concentration at half-maximal activity (AC50) under setting [1] is 15.8 µM [falling, partial curve]. On the same count and under the same terms, for `CCOc1ccccc1NC(=O)Nc1cc2c(cc1N1CCCCC1)n(CC)c(=O)n2CC` the value was 3.16 µM [falling, single point]; for `CCOc1ccccc1CNCc1c(C(=O)O)n(Cc2ccc(F)cc2)c2cc(C)ccc12`, 1.58 µM [rising, partial curve, poor fit]. Still for that read-out and setting: next, `Cc1ccc(C)c(S(=O)(=O)Nc2ccccc2C(=O)Nc2cc(C)on2)c1`: 6.31 µM [falling, partial curve]; `Cc1ccc(-c2noc(-c3cc(-c4ccc(F)cc4)n[nH]3)n2)cc1`: 15.8 µM [rising, partial curve]. On the same count and under the same terms, for `O=C(Nc1c(-c2ccccc2)nc2ccccn12)c1ccccc1F` the value was 12.6 µM [falling, partial curve].

For `Cc1cc(C)cc(NC(=O)CNS(=O)(=O)c2ccc3nc(C)sc3c2)c1`, under setting [1], the concentration at half-maximal activity (AC50) is 12.6 µM [falling, single point]. The same measure, in the same setting: for `O=S(=O)(c1ccc(-c2csc(=Nc3ccc(OC(F)(F)Cl)cc3)n2CCCO)cc1)N1CCCC1` the value was 6.31 µM [falling, partial curve]. The same measure, in the same setting: for `Cc1ccsc1C1C=C(c2cccc(Br)c2)Nc2ncnn21` (centres undefined) the value was 12.6 µM [falling, partial curve]; for `COc1ccc(CCNC(=O)c2cc(-c3ccccc3OC)on2)cc1OC`, 0.251 µM [falling, full curve]. Same read-out and setting: for `Cc1ccc(C2C(C#N)=C(N)Oc3cc4c(cc32)OCO4)cc1` (centres undefined) the value was 25.1 µM [falling, single point].

The record behind these values is PubChem BioAssay AID445 (National Center for Advancing Translational Sciences (NCATS), 2006).
